Values joined by “and” are separate entries in the source; they are usually repeats but may differ in a detail not shown here. Identical values can stand only once. Among all 140,000 compounds or so, about 4,300 (3.1%) were called active. The inconclusive results got no clear call from the source; some entries with a clear call stand among them for comparison.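 The calls were made as follows: active = readout at or below -70, meaning at least 70% loss of cells showing the perinucleolar compartment, a nuclear body marking cancer cells; inconclusive = readout between -30 and a set limit; inactive = the rest.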
Assay: High Content Assay for Compounds that inhibit the Assembly of the Perinucleolar Compartment;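 also: plate controls were DMSO wells for no effect and camptothecin positive control wells for full effect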
Details: PC3M PTB-GFP, PNC prevalence imaging, 16 h; at 10 µM; stronger effect = lower value
How it was run: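 Read-out is percentage of cells bearing a perinucleolar compartment, from automated 20x imaging of fixed, Hoechst-stained PC3M PTB-GFP cells. Cells were seeded 4 h, then exposed 16 h to compound (23 nl of library stock) in duplicate plates.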

SMILES	activity change (PNC), negative = inhibition
CC(C)c1ccc(S(=O)(=O)/N=C2/C=C(Sc3ncn[nH]3)C(=O)c3ccccc32)cc1	inconclusive: -69.6%
COCCCNC(=O)C1CCN(C(=O)Nc2ccc(Cl)cc2)CC1	inactive: -10.5%
CCOC(=O)c1c(NCC2CCCO2)c2ccccc2[nH]c1=O (stereo not drawn)	inactive: 26.3%
Cc1cccc(-n2c(N)cc(=O)[nH]c2=S)c1C	inconclusive: -36.9%
O=C(CCN1C(=O)COc2ccccc21)NCCN1CCN(c2ccccc2F)CC1	inconclusive: -50.7%
CCC(c1nnc(SCC(=O)Nc2nnc(-c3ccccc3)o2)o1)N(C)C (stereo not drawn)	inconclusive: -30.1%
Cc1ccc(-n2c(SCC(=O)Nc3cccc(S(=O)(=O)NC4=NCCCCC4)c3)nc3ccccc3c2=O)cc1C	inconclusive: -38%
COc1ccc(N2C(=O)c3ccccc3NC2c2ccc(OC)c(CSc3ccccn3)c2)cc1 (stereo not drawn)	inactive: 41.4%
Cc1ccc(Cn2ccc(NC(=O)c3cc(-c4ccco4)on3)n2)cc1	inconclusive: -33.3%
Cc1cc(NC(=O)CSc2ncnc3sc4c(c23)CCC(C)C4)no1 (stereo not drawn)	inconclusive: -36.8%
COC(=O)c1nc2n(n1)C(c1cc(OC)ccc1OC)C(C(=O)OC1CCCCC1)=C(C)N2 (stereo not drawn)	inconclusive: -33.7%
COc1cccc(OCCOc2cccc(/C=N/n3cnnc3)c2)c1	inconclusive: -41.9%
COc1ccc(N(C)C(=O)c2onc3c2CCCC3)cc1	inconclusive: -37%
CCOC(=O)C(NC(=O)Nc1ccc(F)cc1)(OCC)C(F)(F)F (stereo not drawn)	inconclusive: -32.4%
COc1cccc(-c2nnc3sc(-c4ccccn4)nn23)c1	inactive: 23.4%
O=C(NCc1ccc2c(c1)OCO2)c1cnc2ccccn2c1=O	inconclusive: -74.2%
COc1cc(C(C#N)N2CCCCC2)ccc1O (stereo not drawn)	inconclusive: -36.4%
COc1ccccc1N1CC(C(=O)OC(C)C(=O)N2CCCc3ccccc32)CC1=O (stereo not drawn)	inconclusive: -47.8%
CCN(CC)c1ccc(C(=O)O)cc1	inactive: 9.77%
COCCCNC(=O)C1CCCN(S(=O)(=O)c2ccc(C)cc2)C1 (stereo not drawn)	active: -100%
CN(C)CCCN1C(=O)C(=O)/C(=C(/O)c2ccc3c(c2)OCCO3)C1c1ccco1 (stereo not drawn)	active: -86%
Fc1ccccc1-c1nc(N2CCCCC2)c2ccccc2n1	inconclusive: -48.1%

SMILES	activity change (PNC), negative = inhibition
CC1Cc2ccccc2N1C(=O)C12CCC(C)(C(=O)C1)C2(C)C (stereo not drawn)	inconclusive: -40.9%
CCC(=O)Nc1nc2c(s1)COc1ccccc1-2	inconclusive: -33.3%
Cc1cc(C(=O)N/N=C/c2cc(Br)cc([N+](=O)[O-])c2O)c2ccccc2n1	inactive: 3.17%
COC(=O)c1c(NC(=O)c2nn(C)cc2Cl)sc2c1CCCC2	active: -92.3%
CCCCNC(C(=O)Nc1ccc([N+](=O)[O-])cc1Br)c1ccccc1 (stereo not drawn)	active: -118%
Cc1ccc2occ(CN3CCN(c4ccccc4)CC3)c(=O)c2c1	inconclusive: -45.7%
CC(NC(=O)/C(C#N)=C/c1ccc(C(=O)O)cc1)c1ccccc1 (stereo not drawn)	inactive: 38%
Cc1cc(C(=O)COC(=O)c2ccc[nH]c2=O)c(C)n1-c1ccc(F)cc1	inconclusive: -35%
COc1ccc(CC(=O)NC(=S)Nc2ccc(S(=O)(=O)NC(C)(C)C)cc2)cc1	inconclusive: -32.2%
CCN(CC)C(=O)CSc1nc(-c2cccs2)cc(-c2cccs2)c1C#N	inconclusive: -49%
O=C(Nc1cccc(C(F)(F)F)c1)C1CCCN1S(=O)(=O)c1cccc2cccnc12 (stereo not drawn)	inconclusive: -71.8%
CCN(C(=O)COC(=O)c1cc(-c2ccc3cc(OC)ccc3c2)nc2ccccc12)C1CCS(=O)(=O)C1 (stereo not drawn)	inconclusive: -57%
CC(=O)[C@H]1CC[C@H]2[C@@H]3C[C@H](C)C4=CC(=O)CC[C@]4(C)[C@H]3[C@@H](O)C[C@]12C	inconclusive: -65.2%
N#Cc1c(-c2ccccc2)cc(C2CC2)nc1SCC(=O)c1cccs1	inactive: 23.4%
O=c1c2cc(N3CCOCC3)ccc2[nH]c(=S)n1CCN1CCCC1	inconclusive: -57.8%
CC(C)C(OC(=O)c1nsc(Cl)c1Cl)C(=O)NCc1ccc2c(c1)OCO2 (stereo not drawn)	inactive: -22.9%
CCC(=O)Nc1nonc1-c1nc2ccccc2n1Cc1cccc2ccccc12	inconclusive: -73.4%
COC(=O)c1ccc2[nH]c(C)c(CN3CCCC3)c(=O)c2c1	inconclusive: -67.4%
O=c1[nH]cnc2scc(-c3ccc(F)cc3)c12	inconclusive: -36.2%
COc1ccc(-c2noc(CSc3nc(N)c(-c4ccccc4)c(=O)[nH]3)n2)cc1OC	inconclusive: -32.2%
CC(C)OCCCN1CN(S(=O)(=O)c2cccc(Cl)c2)c2nc3ccccc3nc21	inactive: 95.9%
CC1CCCN(C(=O)CCS(=O)(=O)Cc2ccccc2)C1 (stereo not drawn)	inconclusive: -45.1%

SMILES	activity change (PNC), negative = inhibition
O=C(Nc1ccc(N2CCN(C(=O)c3ccco3)CC2)c(Cl)c1)c1cc2ccccc2o1	inconclusive: -53.4%
Cc1ccc(C(C)C)c(OCCCN2C(=O)NC(C)(C)C2=O)c1	inconclusive: -55.3%
O=C1NCC(CN(c2ccccc2)c2ccccc2)O1 (stereo not drawn)	inconclusive: -30.5%
Cc1c(N=Cc2c(O)n(Cc3ccco3)c(=O)c3ccccc23)c(=O)n(-c2ccccc2)n1C	active: -100% and inconclusive: -49.5%
O=C(CCN1C(=O)C2CCCCC2C1=O)NNC(=O)c1cccc(Cl)c1 (stereo not drawn)	inconclusive: -35.7%
CCOC(=O)/C(C(N)=NCCO)=C(/O)c1ccccc1	inconclusive: -54.1%
COC(=O)c1ccc(CC(=O)c2nc3ccccc3s2)cc1	inactive: -25.7%
COc1cccc(C2CC(c3ccccc3Cl)Nc3nc(N)nn32)c1 (stereo not drawn)	inconclusive: -72%
COCc1nnc(NC(=O)CCc2ccccc2)s1	inconclusive: -32.1%
CCCSc1nc2c(cnn2-c2ccc(C)c(C)c2)c(=O)[nH]1	active: -95.3%
COc1cc2c(C(=O)NCc3ccc4c(c3)OCO4)cn(CC(C)C)c(=O)c2cc1OC	active: -113%
CSC1=N/C(=C\c2ccc(C)cc2)C(=O)S1	inconclusive: -57.9%
CCN(CC)C1=CC2=CC(=C(C#N)C#N)CCC2CC1 (stereo not drawn)	active: -134%
Cc1cc(C)nc(NCC(O)COc2ccccc2C)n1 (stereo not drawn)	inconclusive: -42.1%
CC1CCCC(C)N1NC(=S)Nc1ccc(OC(F)F)cc1 (stereo not drawn)	inactive: 3.77%
Cc1ccn(CC(=O)N/N=C/c2cc([N+](=O)[O-])ccc2O)n1	inactive: 30.1%
CCN(CCCCN1C(=O)c2ccccc2C1=O)c1ccc2c(c1)C(=O)N(C)C2=O	inactive: -16.3%
N/C(COc1ccc(F)cc1)=N\NC(=O)c1cccnc1Oc1ccccc1	inactive: -3.58%
CCn1c(SCC(=O)Nc2cccc(NC(=O)c3cccs3)c2)nnc1-c1ccncc1	inconclusive: -35.3%
O=C(N/N=C\c1cn(-c2ccccc2)nc1-c1ccccc1)c1ccc(Br)o1	inactive: -19.4%
N/C(=N\OC(=O)CCCN1C(=O)c2ccccc2C1=O)c1ccc(Cl)cc1	inconclusive: -31.5%
COCC(C)NCc1cccc(C)c1 (stereo not drawn)	inactive: 40.6%

SMILES	activity change (PNC), negative = inhibition
CCOC(=O)c1cnc(-n2nc(C)cc2C)nc1NNc1nc(-c2ccccc2)cc(-c2ccccc2)n1	inactive: 64.2%
COC(=O)/C(=C/c1ccccc1)NC(=O)c1ccco1	inconclusive: -44.5%
COC1CCCCC1NS(=O)(=O)c1ccccc1 (stereo not drawn)	inactive: 61.5%
CCCOC(=O)c1ccc(Oc2c(-c3ccc(O)cc3O)n[nH]c2C)cc1	inconclusive: -30.7%
Cc1nn(-c2ccccn2)c2c1-c1nc(N)ncc1CC2	inconclusive: -43.6%
COc1ccc(N2C(S)=C(C#N)C(=O)NC2c2ccco2)cc1 (stereo not drawn)	inconclusive: -35%
COCCNC(=O)CSc1nnc(CCCN2C(=O)c3cccc4cccc(c34)C2=O)n1-c1ccccc1	inconclusive: -30.2%
N#C/C(=C\C1=C(N2CCOCC2)C(=C\c2ccc(Cl)cc2)/CC1)C(=O)Nc1ccccc1F	inconclusive: -57.4%
CC(=O)Nc1cccc(C(=O)N2CCN(Cc3ccccc3)CC2)c1	inconclusive: -31.7%
CCOc1ccc(OCCSc2nnnn2C2CCCCC2)cc1	inactive: 20.7%
CCOC(=O)c1c(NC(=O)CSc2nnnn2-c2ccc3c(c2)OCO3)sc(C)c1C	inconclusive: -34.6%
Cc1sc(NC(=O)c2ccco2)c(C(Nc2ccccn2)c2ccccc2)c1C (stereo not drawn)	inconclusive: -40.1%
CCCC(=O)c1cc2ccccc2oc1=O	inactive: -24%
Cc1cc(=O)[nH]c(-c2ccccc2O)n1	inconclusive: -43.1%
CCN(CC)S(=O)(=O)N1CCC(C(=O)NCC2COc3ccccc3O2)CC1 (stereo not drawn)	inactive: 195%
COc1ccccc1Nc1nc(-c2sc(NC(=O)c3cccc(Cl)c3)nc2C)cs1	inactive: 2.3%
Cc1csc(OCc2ccc(C#N)cc2)n1	inconclusive: -44%
COc1ccc(S(=O)(=O)Cc2ccc(C(=O)NCc3ccccn3)o2)cc1	inactive: -2.39%
NS(=O)(=O)c1ccc(NC(=O)N2c3ccccc3Sc3ccccc32)cc1	inactive: 18.3%
CCc1nnc(NS(=O)(=O)c2ccc(NC(=S)NC(=O)c3ccccc3)cc2)s1	inactive: 30.1%
CC(C)(C)c1ccc(C(=O)Nc2ccc(C=C(C#N)C#N)cc2)cc1	active: -134%
CC(C)(C)NC(=O)COC(=O)CNC(=O)c1cc(Cl)cc([N+](=O)[O-])c1	inconclusive: -46.9%

Source: PubChem BioAssay AID2417 (National Center for Advancing Translational Sciences (NCATS), 2010)
